Data reported in PMC10869362.
These are yes or no findings as the source states them, for the method shown. In cells and extracts the contact can be indirect. Binding calls can cover weak binding; strength is not graded here. Where a sequence is shown, tags or fusion partners need not be part of it.

What was measured:
[1] = target: detour:V5 (V5-tagged detour) (Drosophila); test: co-IP; SL2 cells co-transfected with detour:V5 or detourΔ:V5 and Flag:dor or Flag:Vps16A; IP with anti-V5, blots with anti-Flag and anti-V5
[2] = target: detourΔ:V5 (V5-tagged detour RING deletion) (Drosophila); test: as above
[3] = target: detour:GFP (GFP-tagged detour, CG14435) (Drosophila) (UniProt Q9W3V3); test: co-IP; S2 (SL2) cells co-transfected with detour:GFP (or GFP alone) and Flag:dor, Myc:Vps16A, HA:lt, one by one or all together; IP with anti-GFP, blots with anti-Flag, anti-Myc, anti-HA

B1: Flag:Vps16A (Flag-tagged Vps16A) (protein, UniProt Q9VHG1 1-833)
chain: MPIMYNTGEWFKVRPDYYRKVELATPDWPLDLDLEYMWVEVAPYGGPLAVTRDPTKLVPVKGNARPMIRIFDTTGREMGHILWNHGKLIAMGWSDMEELICIQENATVFVYDMFGREKESYSIGDEASVTKIVEGKVFQSSAGTGVAVMTTSGRVFLKQNSSKTERKLPDIPNSSMNCSCWEIVTEGRNSYCLLGRDREVIKLFPGETVGTITANLFEKPHERIIKISVSYNHQHLALYTNTGLLWLGSVDMRQKYCEFDTGRKDMPLQMEWIMNSDNSEADAVVISYPSYLLIVNRNADRSDFPYDPVMFLVAEMDGVRIITQSSHEIIQRLPKCVENIFAVNSQEPASYLFEAQKKFEEKSYKSDEYLSMCREKIDLAVSECIEAASYEFCPETQKSLLRTAYFGKGFIRNHNPDEYMRIMRILRVLNTLRHERIAMPITFKQFSHLNTEVILSRLVFRKHYAIAIQVAKHLNLPESWILEHWAYHKVMNDPNDTEVARKITEKFKNPSVEGISFCNIASKAHQAGRDDLAIKLLELESRASLHVPLLLKMRKFDRAVGSATQSGDTELITQVLLEMKMHMMLSNLHMTIRDHPLALNIYKKIMRESNRAGLYGIYNTEDDQKAIAEYHFQNAIETEGLESNLSMIGNAYAQGRCTLEAELCADTSRLIKLQKTLSTKYNVSLNGLSIHETIQELLLIGELKEAERIRSEFKVPDRRFWWLRILTLSSQHKWEELEKLAKSKKSPIGYDPFVEVCLKQDNVMEARKYIPRCRDNRRVVWYMRANLFNEAIDSAFEQRDVHSLFELQKNQAIVNNGTLLSKVCDCIAMLEGK
For B1, the binding [1] was “binds” and the binding [2] was “binds”.

B2: Flag:dor (Flag-tagged deep orange) (protein, UniProt Q24314 1-1002)
chain: MDTSMPNQPKFLPRIEHNSSGATANSYVATASGNPFETDEEDEIFSRHKMVLRVPSNCTGDLMHLAVSRNWLVCLLGTPERTTLLRFFLPRAIPPGEAVLEKYLSGSGYKITRMFLDPTGHHIIIALVPKSATAGVSPDFLYIHCLESPQAQQLKVRRIEKFKDHEITAVAFNPYHGNESSTGPILLGTSRGLIFETELNPAADGHVQRKQLYDLGLGRPKYPITGLKLLRVPNSSRYIIVVTSPECIYTFQETLKAEERSLQAIFAGYVSGVQEPHCEERKTDLTFSQLRFFAPPNSKYPKQWAWLCGEGIRVGELSIEANSAATLIGNTLINLDFEKTMHLSYGERRLNTPKAFVLTEYHAVLLYADHVRAICLLNQEQVYQEAFDEARVGKPLSIERDELTGSIYVYTVKTVFNLRVTREERNVWRIYLDKGQYELATAHAAEDPEHLQLVLCQRADAAFADGSYQVAADYYAETDKSFEEVCLKFMVLPDKRPIINYVKKRLSRVTTKPMETDELDEDKMNIIKALVIWLIDLYLIQINMPDKDEEWRSSWQTEYDEFMMEAHVLSCTRQNRETVRQLIAEHADPRNMAQFAIAIGDYDEVVAQQLKAECYAEALQTLINQRNPELFYKYAPELITRLPKPTVDALMAQGSRLEVEKLVPTLIIMENREQREQTQRYLEFAIYKLNTTNDAIHNFLLHLYAEHEPKLLMKYLEIQGRDESLVHYDIYYAHKVCTDLDVKEARVFLECMLRKWISAVDLALTFDMKLAKETASRPSDSKIRRKLWLRIAYHDIKGTNDVKKALNLLKECDLLRIEDLLPFFADFEKIDNFKEAICDALRDYNQRIQELQREMAETTEQTDRVTAELQQLRQHSLTVESQDTCEICEMMLLVKPFFIFICGHKFHSDCLEKHVVPLLTKEQCRRLGTLKQQLEAEVQTQAQPQSGALSKQQAMELQRKRAALKTEIEDILAADCLFCGLLISTIDQPFVDDWEQVNVEWE
For B2, the binding [1] was “binds”, the binding [2] was “binds” and the binding [3] was “binds”.

B3: Myc:Vps16A (Myc-tagged Vacuolar protein sorting 16A) (protein, UniProt Q9VHG1 1-833)
chain: MPIMYNTGEWFKVRPDYYRKVELATPDWPLDLDLEYMWVEVAPYGGPLAVTRDPTKLVPVKGNARPMIRIFDTTGREMGHILWNHGKLIAMGWSDMEELICIQENATVFVYDMFGREKESYSIGDEASVTKIVEGKVFQSSAGTGVAVMTTSGRVFLKQNSSKTERKLPDIPNSSMNCSCWEIVTEGRNSYCLLGRDREVIKLFPGETVGTITANLFEKPHERIIKISVSYNHQHLALYTNTGLLWLGSVDMRQKYCEFDTGRKDMPLQMEWIMNSDNSEADAVVISYPSYLLIVNRNADRSDFPYDPVMFLVAEMDGVRIITQSSHEIIQRLPKCVENIFAVNSQEPASYLFEAQKKFEEKSYKSDEYLSMCREKIDLAVSECIEAASYEFCPETQKSLLRTAYFGKGFIRNHNPDEYMRIMRILRVLNTLRHERIAMPITFKQFSHLNTEVILSRLVFRKHYAIAIQVAKHLNLPESWILEHWAYHKVMNDPNDTEVARKITEKFKNPSVEGISFCNIASKAHQAGRDDLAIKLLELESRASLHVPLLLKMRKFDRAVGSATQSGDTELITQVLLEMKMHMMLSNLHMTIRDHPLALNIYKKIMRESNRAGLYGIYNTEDDQKAIAEYHFQNAIETEGLESNLSMIGNAYAQGRCTLEAELCADTSRLIKLQKTLSTKYNVSLNGLSIHETIQELLLIGELKEAERIRSEFKVPDRRFWWLRILTLSSQHKWEELEKLAKSKKSPIGYDPFVEVCLKQDNVMEARKYIPRCRDNRRVVWYMRANLFNEAIDSAFEQRDVHSLFELQKNQAIVNNGTLLSKVCDCIAMLEGK
B3 was tested, and the binding [3] was “binds”.

B4: HA:lt (HA-tagged light) (protein, UniProt Q7PL76 1-841)
chain: MAKALPLISCDSWADSINEEDVEPKFKYHRLANDLKYMLNADVITCSAVHLKFLIFGTFRGRVCIFDHQGNSVYSNLSASERHTHQVAVNNIDVDHKGEYVATCSDDGKVNITGLFSSDNNHSLSFGKFIKVVSLEPDSKAHIKRFVVGDDKLILYERNLLKKLKPVELCSVEGSVLSICWHGNFIAWASHIGVRVYDLNERCSLGLIKWEVPPQERLENFRCHLRWSNKHTLLIGWVDTIRVCVIRKRNSIEASTGNLPVYIVDPISTFQTTFYVCGLAPLSAKQLVVLGFRKEKSSCFKALRPVLCVIEYKMNNSEEICTDSLTLRGFEEYTVNDYSLGGIIEENRFYIVAPKDIVVASLIETDDRIEWLIKHSKFEEAMELISANGGNVPVLSVAKLYINHLLALKKYDDAAKLCLRMLGNDKVLWEEEVFKFVKCQQLRSVSAYLPTSDECKLDPHVYEMVLYEFLKFDVCGFLNLIKEWPSHLYDGLAVINAIHDNFRKHYANQLLESLALLYSYQGDFESALRMYLKLQNKDVFQLIRRYELYDVISKLIIPLIQLDRDCAFEILLDKKKIKTEIVVHQLEHNQEYLYWYLDSLLKKDPSNVFQKKLISLYAIFDRNKLLPFLKRSKDYDIQEALVICKQENFYPEIVYLLGCMGGVEASEALNIIIHRIRDIEMAIEFCKEHDDSDLWNALINEFSKHPEIVTKVLDGIVDYFSPAVVVGKIKMGQNIPNLRQSLIKMLRHYNLQGEILSSAQQIQLNDYFEIHSEIVTTQRRGQQVSYEQLCSLCHRPVLMAGTHLYCIIRLECGHVYHKPCIQGELLKNCNECNLWKLTVGK
For B4, the binding [3] was “binds”.
